The name of at least one read-out is uncertain.
Assay: ENG and E2 solubility, diffusion coefficient and permeability in EVA copolymers (two-layer polymer slab, fit with Fick's 2nd law)
Settings: for P (permeability in EVA copolymer): ENG

With `C#C[C@]1(O)CC[C@H]2[C@@H]3CCC4=CC(=O)CC[C@@H]4[C@H]3C(=C)C[C@@]21CC` [ENG, etonogestrel] the “P (permeability in EVA copolymer)” value (VA % 9) was 9e-14 kg/ms, the “P (permeability in EVA copolymer)” value (VA % 15) was 2.7e-13 kg/ms and the “P (permeability) in EVA19” value (VA % 19, calculated by interpolation with exponential fit) was 4.2e-13 kg/ms. For the same compound, the “P (permeability) in EVA25” value (VA % 25, calculated by interpolation with exponential fit) was 1e-12 kg/ms.

Source: patent US10413504B2, “Intravaginal ring drug delivery system” (Merck Sharp & Dohme B.V., priority 2013, dated 2019)
